Three molecules from paper PMC10020552 can be followed below.

The chains behind the UniProt entries cited, without tags or fusion partners.
UniProt Q8TDY2: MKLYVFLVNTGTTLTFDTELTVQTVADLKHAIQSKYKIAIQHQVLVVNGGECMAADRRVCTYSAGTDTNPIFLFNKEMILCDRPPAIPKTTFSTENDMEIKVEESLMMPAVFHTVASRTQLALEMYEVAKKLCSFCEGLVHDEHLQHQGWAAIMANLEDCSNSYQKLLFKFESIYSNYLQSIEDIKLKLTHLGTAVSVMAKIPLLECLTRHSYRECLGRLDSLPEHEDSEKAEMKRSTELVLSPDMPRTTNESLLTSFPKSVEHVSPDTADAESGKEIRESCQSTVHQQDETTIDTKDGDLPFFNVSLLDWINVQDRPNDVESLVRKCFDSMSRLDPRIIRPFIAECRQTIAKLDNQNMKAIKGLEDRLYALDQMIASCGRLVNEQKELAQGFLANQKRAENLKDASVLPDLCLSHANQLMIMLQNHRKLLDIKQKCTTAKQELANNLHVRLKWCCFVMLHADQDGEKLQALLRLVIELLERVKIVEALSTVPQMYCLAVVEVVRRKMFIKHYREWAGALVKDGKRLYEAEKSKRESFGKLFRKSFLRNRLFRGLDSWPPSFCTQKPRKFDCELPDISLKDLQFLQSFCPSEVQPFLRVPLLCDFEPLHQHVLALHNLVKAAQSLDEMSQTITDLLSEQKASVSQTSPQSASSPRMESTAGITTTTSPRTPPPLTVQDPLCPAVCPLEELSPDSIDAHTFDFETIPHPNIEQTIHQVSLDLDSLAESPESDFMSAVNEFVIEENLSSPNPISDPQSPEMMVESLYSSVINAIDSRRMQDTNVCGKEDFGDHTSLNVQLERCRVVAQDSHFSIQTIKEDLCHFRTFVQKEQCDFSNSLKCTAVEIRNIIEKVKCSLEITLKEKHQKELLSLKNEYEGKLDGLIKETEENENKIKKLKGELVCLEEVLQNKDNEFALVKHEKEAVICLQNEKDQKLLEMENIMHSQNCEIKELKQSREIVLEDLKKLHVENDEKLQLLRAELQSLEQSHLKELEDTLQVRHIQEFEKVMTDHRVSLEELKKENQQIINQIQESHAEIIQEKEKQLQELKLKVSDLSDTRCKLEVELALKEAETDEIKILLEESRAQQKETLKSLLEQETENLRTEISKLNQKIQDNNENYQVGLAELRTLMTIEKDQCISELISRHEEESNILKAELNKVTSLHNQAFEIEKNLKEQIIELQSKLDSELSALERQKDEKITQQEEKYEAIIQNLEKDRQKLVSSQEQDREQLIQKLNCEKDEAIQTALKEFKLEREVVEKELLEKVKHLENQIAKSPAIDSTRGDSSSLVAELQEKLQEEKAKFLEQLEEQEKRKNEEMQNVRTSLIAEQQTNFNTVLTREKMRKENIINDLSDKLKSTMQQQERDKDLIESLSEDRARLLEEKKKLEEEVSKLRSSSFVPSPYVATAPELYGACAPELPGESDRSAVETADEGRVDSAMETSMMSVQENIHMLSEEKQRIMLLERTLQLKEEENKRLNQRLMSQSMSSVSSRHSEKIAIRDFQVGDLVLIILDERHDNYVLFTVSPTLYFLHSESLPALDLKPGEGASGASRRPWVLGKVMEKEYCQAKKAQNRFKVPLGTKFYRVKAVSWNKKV

These are yes or no findings as the source states them, for the method shown. Binding seen in cells or lysates may run through a third protein. Some binding calls cover weakened binding; strength is not graded here. For some of these results: Sequences can lack the tags named with a protein.

The target in test [1] is T1, mitochondrial Lon (endogenous) (human (endogenous in HCT-15)) (UniProt P36776).
T1 sequence: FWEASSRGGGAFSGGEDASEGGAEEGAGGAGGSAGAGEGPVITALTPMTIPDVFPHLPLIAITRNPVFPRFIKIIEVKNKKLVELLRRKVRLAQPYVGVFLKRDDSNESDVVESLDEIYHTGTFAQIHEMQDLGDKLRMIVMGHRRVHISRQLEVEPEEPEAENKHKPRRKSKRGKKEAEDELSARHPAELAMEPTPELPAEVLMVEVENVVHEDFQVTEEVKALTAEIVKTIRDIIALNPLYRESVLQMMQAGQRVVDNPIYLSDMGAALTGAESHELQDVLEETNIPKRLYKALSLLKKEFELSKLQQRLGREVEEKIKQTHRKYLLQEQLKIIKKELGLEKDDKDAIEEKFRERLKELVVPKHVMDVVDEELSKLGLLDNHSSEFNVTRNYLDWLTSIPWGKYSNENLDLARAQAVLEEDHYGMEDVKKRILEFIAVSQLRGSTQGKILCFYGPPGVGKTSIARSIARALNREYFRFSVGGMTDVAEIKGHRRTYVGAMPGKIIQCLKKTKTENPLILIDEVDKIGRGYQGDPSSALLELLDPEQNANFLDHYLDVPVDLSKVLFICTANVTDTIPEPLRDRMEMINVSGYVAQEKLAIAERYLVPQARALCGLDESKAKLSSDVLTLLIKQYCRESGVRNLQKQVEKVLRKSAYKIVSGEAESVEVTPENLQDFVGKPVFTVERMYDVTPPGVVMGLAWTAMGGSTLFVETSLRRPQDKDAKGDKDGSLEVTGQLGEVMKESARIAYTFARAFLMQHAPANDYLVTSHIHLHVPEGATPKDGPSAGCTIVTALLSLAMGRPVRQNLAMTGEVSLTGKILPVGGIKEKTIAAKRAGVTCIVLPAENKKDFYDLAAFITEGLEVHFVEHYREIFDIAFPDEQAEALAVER
Description: co-IP; endogenous proteins; whole cell lysates of HCT-15 cells treated with CoCl2 (200 μM for 18 h); precipitated with anti-ULK1 (Fig. 5A) or with Lon (Fig. S5A); Western blot.

For test [2], the target named is T2, Flag-ULK1 (UniProt O75385).
T2 sequence: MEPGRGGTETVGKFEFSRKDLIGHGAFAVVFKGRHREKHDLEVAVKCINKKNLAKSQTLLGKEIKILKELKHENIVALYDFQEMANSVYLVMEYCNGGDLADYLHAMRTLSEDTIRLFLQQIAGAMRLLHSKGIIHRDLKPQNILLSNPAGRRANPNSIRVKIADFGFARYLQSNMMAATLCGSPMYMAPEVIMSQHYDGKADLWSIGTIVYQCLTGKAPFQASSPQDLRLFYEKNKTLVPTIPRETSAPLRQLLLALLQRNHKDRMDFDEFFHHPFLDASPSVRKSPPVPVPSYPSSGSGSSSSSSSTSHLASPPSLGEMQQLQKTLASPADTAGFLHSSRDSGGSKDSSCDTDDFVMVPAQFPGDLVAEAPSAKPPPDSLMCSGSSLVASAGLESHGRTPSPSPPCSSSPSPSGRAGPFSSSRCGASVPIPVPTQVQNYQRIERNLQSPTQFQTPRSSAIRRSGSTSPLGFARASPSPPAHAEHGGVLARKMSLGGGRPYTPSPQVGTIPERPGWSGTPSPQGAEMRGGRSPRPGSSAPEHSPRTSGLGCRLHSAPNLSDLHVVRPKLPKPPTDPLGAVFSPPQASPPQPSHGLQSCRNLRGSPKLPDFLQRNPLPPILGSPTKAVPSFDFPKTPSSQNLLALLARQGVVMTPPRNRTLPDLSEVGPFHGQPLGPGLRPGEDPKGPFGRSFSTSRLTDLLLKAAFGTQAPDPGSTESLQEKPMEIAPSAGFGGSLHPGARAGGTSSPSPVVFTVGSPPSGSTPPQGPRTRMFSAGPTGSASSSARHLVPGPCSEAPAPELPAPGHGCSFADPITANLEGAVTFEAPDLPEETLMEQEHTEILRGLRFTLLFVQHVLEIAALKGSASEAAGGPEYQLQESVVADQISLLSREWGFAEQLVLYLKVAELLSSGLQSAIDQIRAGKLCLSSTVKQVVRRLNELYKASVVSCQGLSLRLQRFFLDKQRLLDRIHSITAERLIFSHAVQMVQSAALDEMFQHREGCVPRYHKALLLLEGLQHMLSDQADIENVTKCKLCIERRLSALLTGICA
Kind of test: co-IP; whole cell lysates of HCT-15 cells transfected with Flag-ULK1 or vector; precipitated with anti-ULK1; Western blot. Background: In western blotting, separated proteins are transferred to a membrane and probed.

Test [3] has as its target T3, ULK1 (Unc-51 like kinase), endogenous (human (endogenous in HCT-15)) (UniProt O75385).
T3 sequence: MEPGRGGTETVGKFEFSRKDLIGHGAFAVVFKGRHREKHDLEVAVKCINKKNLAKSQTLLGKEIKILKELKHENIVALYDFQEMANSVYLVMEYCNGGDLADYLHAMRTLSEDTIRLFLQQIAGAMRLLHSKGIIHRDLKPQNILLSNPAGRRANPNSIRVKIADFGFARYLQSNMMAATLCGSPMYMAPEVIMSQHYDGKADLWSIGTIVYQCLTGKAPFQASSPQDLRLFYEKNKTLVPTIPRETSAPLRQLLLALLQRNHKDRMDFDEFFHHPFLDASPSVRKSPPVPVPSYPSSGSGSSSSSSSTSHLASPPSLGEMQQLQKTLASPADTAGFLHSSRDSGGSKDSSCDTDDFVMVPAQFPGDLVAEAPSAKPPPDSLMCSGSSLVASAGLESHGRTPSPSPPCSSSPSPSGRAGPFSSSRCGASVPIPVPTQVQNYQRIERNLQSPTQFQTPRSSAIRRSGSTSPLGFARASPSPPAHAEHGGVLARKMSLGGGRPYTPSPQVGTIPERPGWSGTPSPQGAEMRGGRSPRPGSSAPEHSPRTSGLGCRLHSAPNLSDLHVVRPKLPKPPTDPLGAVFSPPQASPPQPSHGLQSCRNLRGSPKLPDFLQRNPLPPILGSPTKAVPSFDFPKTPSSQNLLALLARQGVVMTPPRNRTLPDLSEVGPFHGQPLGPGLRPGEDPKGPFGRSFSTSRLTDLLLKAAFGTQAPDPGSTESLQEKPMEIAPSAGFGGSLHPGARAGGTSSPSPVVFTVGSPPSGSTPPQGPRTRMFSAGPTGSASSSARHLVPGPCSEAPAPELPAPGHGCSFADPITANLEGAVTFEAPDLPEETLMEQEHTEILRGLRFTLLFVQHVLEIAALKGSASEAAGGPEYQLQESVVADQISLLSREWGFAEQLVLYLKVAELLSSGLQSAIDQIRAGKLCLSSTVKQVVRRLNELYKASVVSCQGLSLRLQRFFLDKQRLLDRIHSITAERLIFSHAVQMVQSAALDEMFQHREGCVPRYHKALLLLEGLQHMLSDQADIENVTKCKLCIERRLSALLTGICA
Kind of test: co-IP; endogenous proteins; whole cell lysates of HCT-15 cells treated with CoCl2 (200 μM for 18 h); precipitated with anti-ULK1 (Fig. 5A) or with Lon (Fig. S5A); Western blot.

Test [4] addresses T2, Flag-ULK1. Description: co-IP; whole cell lysates of HCT-15 cells co-transfected with myc-Lon and Flag-ULK1; precipitated with anti-myc (Fig. 5C) or anti-Flag (Fig. S5B); Western blot.

Turning to “FIP200 (RB1CC1), endogenous (from UniProt Q8TDY2 1-1594)”, the binding result in test [1] is “binds”.

B1: mitochondrial Lon (endogenous) (protein, UniProt P36776 68-959)
chain: FWEASSRGGGAFSGGEDASEGGAEEGAGGAGGSAGAGEGPVITALTPMTIPDVFPHLPLIAITRNPVFPRFIKIIEVKNKKLVELLRRKVRLAQPYVGVFLKRDDSNESDVVESLDEIYHTGTFAQIHEMQDLGDKLRMIVMGHRRVHISRQLEVEPEEPEAENKHKPRRKSKRGKKEAEDELSARHPAELAMEPTPELPAEVLMVEVENVVHEDFQVTEEVKALTAEIVKTIRDIIALNPLYRESVLQMMQAGQRVVDNPIYLSDMGAALTGAESHELQDVLEETNIPKRLYKALSLLKKEFELSKLQQRLGREVEEKIKQTHRKYLLQEQLKIIKKELGLEKDDKDAIEEKFRERLKELVVPKHVMDVVDEELSKLGLLDNHSSEFNVTRNYLDWLTSIPWGKYSNENLDLARAQAVLEEDHYGMEDVKKRILEFIAVSQLRGSTQGKILCFYGPPGVGKTSIARSIARALNREYFRFSVGGMTDVAEIKGHRRTYVGAMPGKIIQCLKKTKTENPLILIDEVDKIGRGYQGDPSSALLELLDPEQNANFLDHYLDVPVDLSKVLFICTANVTDTIPEPLRDRMEMINVSGYVAQEKLAIAERYLVPQARALCGLDESKAKLSSDVLTLLIKQYCRESGVRNLQKQVEKVLRKSAYKIVSGEAESVEVTPENLQDFVGKPVFTVERMYDVTPPGVVMGLAWTAMGGSTLFVETSLRRPQDKDAKGDKDGSLEVTGQLGEVMKESARIAYTFARAFLMQHAPANDYLVTSHIHLHVPEGATPKDGPSAGCTIVTALLSLAMGRPVRQNLAMTGEVSLTGKILPVGGIKEKTIAAKRAGVTCIVLPAENKKDFYDLAAFITEGLEVHFVEHYREIFDIAFPDEQAEALAVER
In the case of B1, the binding entry (in the test with Flag-ULK1 [2]; in test [3]) was “binds” in each case.

B2: myc-Lon (protein, UniProt P36776 68-959)
chain: FWEASSRGGGAFSGGEDASEGGAEEGAGGAGGSAGAGEGPVITALTPMTIPDVFPHLPLIAITRNPVFPRFIKIIEVKNKKLVELLRRKVRLAQPYVGVFLKRDDSNESDVVESLDEIYHTGTFAQIHEMQDLGDKLRMIVMGHRRVHISRQLEVEPEEPEAENKHKPRRKSKRGKKEAEDELSARHPAELAMEPTPELPAEVLMVEVENVVHEDFQVTEEVKALTAEIVKTIRDIIALNPLYRESVLQMMQAGQRVVDNPIYLSDMGAALTGAESHELQDVLEETNIPKRLYKALSLLKKEFELSKLQQRLGREVEEKIKQTHRKYLLQEQLKIIKKELGLEKDDKDAIEEKFRERLKELVVPKHVMDVVDEELSKLGLLDNHSSEFNVTRNYLDWLTSIPWGKYSNENLDLARAQAVLEEDHYGMEDVKKRILEFIAVSQLRGSTQGKILCFYGPPGVGKTSIARSIARALNREYFRFSVGGMTDVAEIKGHRRTYVGAMPGKIIQCLKKTKTENPLILIDEVDKIGRGYQGDPSSALLELLDPEQNANFLDHYLDVPVDLSKVLFICTANVTDTIPEPLRDRMEMINVSGYVAQEKLAIAERYLVPQARALCGLDESKAKLSSDVLTLLIKQYCRESGVRNLQKQVEKVLRKSAYKIVSGEAESVEVTPENLQDFVGKPVFTVERMYDVTPPGVVMGLAWTAMGGSTLFVETSLRRPQDKDAKGDKDGSLEVTGQLGEVMKESARIAYTFARAFLMQHAPANDYLVTSHIHLHVPEGATPKDGPSAGCTIVTALLSLAMGRPVRQNLAMTGEVSLTGKILPVGGIKEKTIAAKRAGVTCIVLPAENKKDFYDLAAFITEGLEVHFVEHYREIFDIAFPDEQAEALAVER
With B2, in the test with Flag-ULK1 [4], the binding result is reported as “binds”.
